Measurements taken from article PMC6896289.
No constants are given. Whether binding was seen depends on the method and setting. In cells and extracts the contact can be indirect. Some binding calls cover weakened binding; strength is not graded here.

Protein sequences, listed by entry. Tags and fused reporters are not part of them.
UniProt Q92769: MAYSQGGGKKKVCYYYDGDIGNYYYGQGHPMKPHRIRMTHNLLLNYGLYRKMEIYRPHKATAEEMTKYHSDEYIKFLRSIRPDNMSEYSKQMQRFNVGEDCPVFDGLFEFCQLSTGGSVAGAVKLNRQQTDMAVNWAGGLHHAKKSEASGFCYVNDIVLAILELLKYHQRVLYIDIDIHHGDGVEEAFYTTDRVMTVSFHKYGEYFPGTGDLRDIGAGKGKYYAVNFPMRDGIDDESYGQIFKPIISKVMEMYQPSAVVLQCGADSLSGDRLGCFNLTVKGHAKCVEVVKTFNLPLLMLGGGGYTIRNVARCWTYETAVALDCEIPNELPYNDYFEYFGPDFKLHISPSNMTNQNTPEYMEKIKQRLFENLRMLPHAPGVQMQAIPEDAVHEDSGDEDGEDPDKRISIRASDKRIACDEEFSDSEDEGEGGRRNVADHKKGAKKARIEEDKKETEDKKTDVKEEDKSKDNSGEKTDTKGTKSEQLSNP
UniProt P42224: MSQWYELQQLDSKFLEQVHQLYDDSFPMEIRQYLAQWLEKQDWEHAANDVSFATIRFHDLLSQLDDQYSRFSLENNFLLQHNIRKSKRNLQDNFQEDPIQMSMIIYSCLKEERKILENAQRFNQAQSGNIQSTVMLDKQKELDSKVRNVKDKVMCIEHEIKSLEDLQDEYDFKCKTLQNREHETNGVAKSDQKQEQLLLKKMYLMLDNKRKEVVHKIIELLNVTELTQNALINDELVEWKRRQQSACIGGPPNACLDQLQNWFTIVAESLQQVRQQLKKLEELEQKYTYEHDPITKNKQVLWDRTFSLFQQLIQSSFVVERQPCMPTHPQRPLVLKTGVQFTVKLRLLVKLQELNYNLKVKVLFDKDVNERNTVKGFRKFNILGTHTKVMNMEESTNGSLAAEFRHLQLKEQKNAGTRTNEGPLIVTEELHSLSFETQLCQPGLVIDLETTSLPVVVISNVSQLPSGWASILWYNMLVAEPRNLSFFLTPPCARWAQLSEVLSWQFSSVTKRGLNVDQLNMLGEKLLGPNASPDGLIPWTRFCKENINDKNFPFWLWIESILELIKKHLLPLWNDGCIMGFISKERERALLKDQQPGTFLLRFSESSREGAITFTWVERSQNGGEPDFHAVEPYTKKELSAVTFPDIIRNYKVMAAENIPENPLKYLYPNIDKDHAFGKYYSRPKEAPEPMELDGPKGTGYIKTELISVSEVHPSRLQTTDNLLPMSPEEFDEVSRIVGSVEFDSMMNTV
UniProt P52630: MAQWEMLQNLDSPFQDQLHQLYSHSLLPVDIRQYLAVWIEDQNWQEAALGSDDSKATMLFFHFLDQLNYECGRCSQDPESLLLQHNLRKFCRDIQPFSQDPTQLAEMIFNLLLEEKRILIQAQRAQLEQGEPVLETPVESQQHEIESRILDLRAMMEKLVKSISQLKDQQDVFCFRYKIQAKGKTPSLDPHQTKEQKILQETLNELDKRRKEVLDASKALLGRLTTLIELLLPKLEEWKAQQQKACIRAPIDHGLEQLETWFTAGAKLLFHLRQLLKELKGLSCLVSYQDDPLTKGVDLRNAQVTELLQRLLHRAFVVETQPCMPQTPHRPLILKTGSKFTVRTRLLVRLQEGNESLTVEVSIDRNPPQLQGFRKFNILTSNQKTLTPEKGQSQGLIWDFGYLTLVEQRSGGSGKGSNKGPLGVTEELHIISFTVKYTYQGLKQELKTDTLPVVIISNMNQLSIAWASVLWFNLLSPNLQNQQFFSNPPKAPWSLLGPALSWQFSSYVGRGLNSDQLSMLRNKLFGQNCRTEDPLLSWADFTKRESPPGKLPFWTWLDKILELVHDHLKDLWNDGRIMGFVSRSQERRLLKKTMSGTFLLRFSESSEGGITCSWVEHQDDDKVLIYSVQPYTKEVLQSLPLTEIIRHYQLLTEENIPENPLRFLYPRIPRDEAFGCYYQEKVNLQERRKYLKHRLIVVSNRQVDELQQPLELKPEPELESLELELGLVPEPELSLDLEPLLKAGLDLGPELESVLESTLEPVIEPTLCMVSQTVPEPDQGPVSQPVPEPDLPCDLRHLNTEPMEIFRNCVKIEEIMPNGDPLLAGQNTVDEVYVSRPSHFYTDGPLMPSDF

Target: Histone deacetylase 2 (human (endogenous in A375)) (UniProt Q92769)
Test: co-IP; lysates of A375 cells (with or without IFNα 1000 U/ml for 6 h; control or NOS1-overexpressing cells) precipitated with HDAC2 or IgG antibodies, Co-Immunoprecipitation Kit (Thermo Fisher 26149), western blot for STAT1 and STAT2

binding | Substance
binds | Signal transducer and activator of transcription 1 (from UniProt P42224 1-750)
binds | Signal transducer and activator of transcription 2 (from UniProt P52630 1-851)
